The experiment concerns the target T1, Six2 fragment derived from mouse Six protein (SEQ ID NO. 6) (mouse) (UniProt Q62232).
T1 sequence: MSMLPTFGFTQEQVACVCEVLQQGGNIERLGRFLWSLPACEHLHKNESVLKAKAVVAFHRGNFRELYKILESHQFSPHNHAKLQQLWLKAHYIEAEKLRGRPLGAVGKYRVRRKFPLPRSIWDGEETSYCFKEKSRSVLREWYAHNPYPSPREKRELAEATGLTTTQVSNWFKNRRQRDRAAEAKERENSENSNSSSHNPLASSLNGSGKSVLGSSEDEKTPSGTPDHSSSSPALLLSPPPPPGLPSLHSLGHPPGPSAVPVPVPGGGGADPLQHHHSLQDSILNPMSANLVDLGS
Briefly: electrophoretic mobility shift assay, myogenin promoter DNA probe, Six2 alone or with Eya3(ED). (In EMSA bound probe runs differently from free probe, usually more slowly.)

Amino acid sequences for entries named in this document (tags omitted). A change or cut given only in a name is not applied to a line headed by its entry.
UniProt P97480: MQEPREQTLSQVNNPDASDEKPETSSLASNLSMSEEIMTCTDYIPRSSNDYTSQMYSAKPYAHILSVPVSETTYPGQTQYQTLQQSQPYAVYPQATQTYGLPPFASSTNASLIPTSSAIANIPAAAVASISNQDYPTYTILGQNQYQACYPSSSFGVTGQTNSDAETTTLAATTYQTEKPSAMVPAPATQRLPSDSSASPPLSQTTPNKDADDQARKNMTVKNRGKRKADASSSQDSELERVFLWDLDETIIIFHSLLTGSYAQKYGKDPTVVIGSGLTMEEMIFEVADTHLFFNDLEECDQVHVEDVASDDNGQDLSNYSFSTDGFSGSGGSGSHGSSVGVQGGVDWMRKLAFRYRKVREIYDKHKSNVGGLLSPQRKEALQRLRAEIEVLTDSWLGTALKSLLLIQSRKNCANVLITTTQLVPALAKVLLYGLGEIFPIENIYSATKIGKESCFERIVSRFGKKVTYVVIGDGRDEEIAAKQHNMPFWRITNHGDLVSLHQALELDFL

Data on one substance can be found in patent publication US8486651B2, “Method for treating a disorder associated with Eya dysregulation by modulating Eya phosphatase activity” (Children's Hospital Medical Center, priority 2008, dated 2013).

These are yes or no findings as the source states them, for the method shown. Binding can be weak; no strength is given.

In the case of Eya3(ED) (from UniProt P97480) (enzyme), the binding result is “binds”.
